Reference: PubChem BioAssay AID2551 (National Center for Advancing Translational Sciences (NCATS), 2010)
Among all 310,000 compounds or so, about 17,000 (5.5%) were called active. Inconclusive results, whose numbers are uncertain, are shown with a selection of clear calls. Calls come from the whole dose curve; as a rule, active = well fitted inhibition curve with a large enough effect; inconclusive = small, poorly fitted or top-dose-only effect, or effect the other way; inactive = no such curve, though single readings can be large or run the other way. Potencies beside an inconclusive call are fits to weak or partial responses and may not hold up.

Amino acid sequences for entries named in this document (tags omitted). A change or cut given only in a name is not applied to a line headed by its entry.
UniProt P51450: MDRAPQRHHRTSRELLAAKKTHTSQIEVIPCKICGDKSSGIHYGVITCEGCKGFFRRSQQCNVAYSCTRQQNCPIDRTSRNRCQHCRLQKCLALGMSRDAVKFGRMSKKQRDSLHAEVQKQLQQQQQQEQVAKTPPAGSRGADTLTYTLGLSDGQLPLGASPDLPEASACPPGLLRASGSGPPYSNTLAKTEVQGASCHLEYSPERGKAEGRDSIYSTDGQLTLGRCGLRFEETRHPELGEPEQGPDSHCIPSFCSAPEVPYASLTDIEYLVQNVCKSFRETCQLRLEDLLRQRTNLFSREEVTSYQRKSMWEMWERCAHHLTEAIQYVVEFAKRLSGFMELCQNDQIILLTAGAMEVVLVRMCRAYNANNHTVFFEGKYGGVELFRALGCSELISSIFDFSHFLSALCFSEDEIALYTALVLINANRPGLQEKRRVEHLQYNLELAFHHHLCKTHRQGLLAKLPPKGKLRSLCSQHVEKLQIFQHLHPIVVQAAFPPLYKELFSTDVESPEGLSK

target: Nuclear receptor ROR-gamma (Mus musculus) (UniProt P51450); assay: qHTS for inhibitors of ROR gamma transcriptional activity; conditions: Drosophila S2 Gal4-RORgamma UAS-luciferase reporter, 20 h; activity change, negative = inhibition: at 53.6 µM (top of the series); note: nearly all actives have a fitted effect of over 60% in size
How it was run: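 Luminescence from a UAS-regulated Photinus luciferase reporter in stably transfected Drosophila Schneider cells is measured; decreased signal marks ROR gamma inhibition. Fusion expression is induced by 700 uM copper sulfate for 20 hr.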
% is set by controls: 0 for no effect and ±100 for the full control effect; potency is the fitted concentration of half-maximal effect.

Structure (SMILES) | activity change, negative = inhibition | Potency
COc1ccccc1N1C(=O)c2ccc(C(=O)Nc3ccc(C(=O)O)cc3)cc2C1=O | inactive: 18.5% | 
O=C(Nc1ccc2c(c1)OCO2)c1ccc(Cl)s1 |  | inconclusive: 1.41 µM [activator, partial curve]
CCOC(=O)c1cc(=O)n(Cc2ccccc2C)c2ccccc12 |  | inconclusive: 31.6 µM [activator, single point]
Fc1ccc(NC(=S)N2CCSC2c2cccs2)cc1 (centres undefined) |  | inconclusive: 20 µM [inhibitor, single point]
CCC/C=N/NC(=O)c1ccc(F)cc1 |  | inconclusive: 35.5 µM [inhibitor, single point]
CCOC(=O)C1=C(C)N(c2ccc(OCC)cc2)C(=O)/C1=C\c1ccco1 |  | inconclusive: 3.16 µM [activator, single point]
O=Cc1s/c(=N\S(=O)(=O)c2ccccc2)n(CCCCl)c1Cl |  | active: 5.01 µM
CC(=O)Nc1sc(N/N=C\c2cccc(Cl)c2)nc1-c1cccs1 |  | inconclusive: 35.5 µM [inhibitor, single point]
O=C(NC(=S)Nc1ccc(N2CCOCC2)cc1)c1cccc(Cl)c1 |  | active: 2.51 µM
CC(=O)c1ccc(NC(=O)C(C)OC(=O)C(C)Oc2cccc(C)c2)cc1 (centres undefined) |  | inconclusive: 31.6 µM [activator, single point]
O=c1[nH]c2ccc(Cl)cc2c(-c2ccccc2)c1[N+](=O)[O-] |  | active: 1.26 µM
COc1ccc(Br)cc1/C=N/NC(=O)c1cc(OC)c(OC)c(OC)c1 |  | inconclusive: 11.2 µM [inhibitor, partial curve]
CCc1ccc(-c2nc(CSCC(=O)NC3CC3)c(C)o2)cc1 |  | active: 2 µM
Cc1ccc(-c2cccc(CN3CCN(C4CCN(C(C)C)CC4)C(CCO)C3)c2)o1 (centres undefined) | inactive: -2.69% | 
Cc1nc(N2CCOCC2)c2nc(-c3ccccc3)n(CCN(C)C)c2n1 | inactive: 13.4% | 
C=CC(C)(O)CC/C=C(\C)CCC=C(C)C (centres undefined) | inactive: 8.1% | 
CN=C(Nc1ccccc1)SC1CC(=O)N(c2ccc(C(=O)OC)cc2)C1=O (centres undefined) |  | inconclusive: 8.91 µM [activator, partial curve]
Cc1cccc(N(Cc2cc3ccc(C)cc3[nH]c2=O)C(=O)c2ccco2)c1 |  | inconclusive: 35.5 µM [inhibitor, single point]
Cc1nn(Cc2ccc(C(=O)N3c4ccc(F)cc4CCC3C)o2)c(C)c1Br (centres undefined) |  | inconclusive: 12.6 µM [activator, single point]
O=C(NCCc1ccc2c(c1)OCO2)C1CCN(S(=O)(=O)c2ccc(Cl)cc2)CC1 |  | inconclusive: 35.5 µM [activator, single point]
COc1ccc(OC)c(NC(=S)NN2CCOCC2)c1 |  | active: 28.2 µM
CC1(C)CC(=O)c2c(Cc3ccccc3)noc2C1 |  | inconclusive: 10 µM [activator, partial curve]
CC(=O)NC(Cc1c[nH]c2ccccc12)C(=O)Nc1ccc2c(c1)OCO2 (centres undefined) | inactive: -10.2% | 
CCCCCn1c(SCc2ccncc2)nc2cc(C(=O)NCc3ccco3)ccc2c1=O |  | inconclusive: 7.08 µM [activator, partial curve, poor fit]
CCOc1ccc(CONS(=O)(=O)c2ccc(NC(C)=O)cc2)cc1Cl |  | inconclusive: 28.2 µM [activator, single point]

Some of these compounds in order of SMILES length, ascending.
Structure (SMILES) | activity change, negative = inhibition | Potency
COc1ccc(OC)c(NC(=S)NN2CCOCC2)c1 |  | active: 28.2 µM
CC1(C)CC(=O)c2c(Cc3ccccc3)noc2C1 |  | inconclusive: 10 µM [activator, partial curve]
CN=C(Nc1ccccc1)SC1CC(=O)N(c2ccc(C(=O)OC)cc2)C1=O (centres undefined) |  | inconclusive: 8.91 µM [activator, partial curve]
Cc1cccc(N(Cc2cc3ccc(C)cc3[nH]c2=O)C(=O)c2ccco2)c1 |  | inconclusive: 35.5 µM [inhibitor, single point]

The list goes on.

Structure (SMILES) | activity change, negative = inhibition | Potency
CC(C)(C)c1ccc(C(=O)COC(=O)CN2C(=O)NC3(CCCC3)C2=O)cc1 |  | inconclusive: 12.6 µM [activator, partial curve]
COc1cc(C(=O)Nc2ccc(OCC(=O)O)cc2)cc(OC)c1OC |  | inconclusive: 6.31 µM [inhibitor, single point]
Cc1cc(C)c2c(c1)cc(C)c1nnc(SCC(=O)Nc3ccc(S(=O)(=O)N4CCCCC4)cc3)n12 | inactive: -8.53% | 
COc1ccccc1NC(=O)N(C1CCCC1)C1CCN(C(C)=O)CC1 | inactive: -16.4% | 
Cc1ccc2nc(N(CCCN(C)C)C(=O)c3sc4ccccc4c3Cl)sc2c1 |  | inconclusive: 35.5 µM [inhibitor, single point]
CCc1[nH]nc(C(=O)N2CCCC(C(=O)c3cccc(OC(C)C)c3)C2)c1C (centres undefined) |  | inconclusive: 15.8 µM [activator, partial curve]
C/C(=N\NC(=O)c1cccc(C)c1)c1ccc(N2CCOCC2)cc1 |  | inconclusive: 0.708 µM [inhibitor, partial curve]
O=C(NC1CCCN(Cc2ccc(Cl)cc2)C1)c1c(F)ccc(F)c1F (centres undefined) | inactive: -3.13% | 
O=C(NCc1ccco1)Nc1ccc(Br)cc1 | inactive: 26.1% | 
COc1cc(S(=O)(=O)Nc2ccc(Br)cc2)ccc1N |  | inconclusive: 35.5 µM [activator, single point]
CC1CCCC(C)N1CCCNC(=O)Cn1c(=O)c2cccn2c2cccnc21 (centres undefined) | inactive: -0.0878% | 
O=[N+]([O-])c1ccc(-c2nc(NCC3CCCO3)c3ccccc3n2)cc1 (centres undefined) | inactive: -20.1% | 
CCOC(=O)C1C2C=CC3(CN(c4ccc(Cl)c(F)c4)C(=O)C13)O2 (centres undefined) |  | inconclusive: 0.112 µM [inhibitor, single point]
CC(=O)Nc1ccc(Nc2c([N+](=O)[O-])cc(S(C)(=O)=O)cc2[N+](=O)[O-])cc1 |  | inconclusive: 8.91 µM [inhibitor, partial curve]
CC(CN1CCCCC1)NC(=O)c1cccs1 (centres undefined) |  | inconclusive: 0.631 µM [inhibitor, single point]
COC(=O)C1=C(Nc2ccc(C)cc2)C=C(C)C(C(=O)OC)C1c1ccc(F)cc1 (centres undefined) |  | inconclusive: 35.5 µM [activator, single point]
CC1CCc2c(sc3nc(CSc4ncn[nH]4)[nH]c(=O)c23)C1 (centres undefined) | inactive: -68.2% | 
CCO[C@H]1OC(C(=O)NC2CC2)=C[C@@H](C2CCCCC2)[C@@H]1CCCO | inactive: 27.4% | 
CCn1cc(C(=O)O)c(=O)c2cnc(N3CCN(C(=S)NC(=O)c4ccccc4)CC3)nc21 |  | active: 2.51 µM
CCn1ccnc1CNCc1cn(-c2cc(C)ccc2C)nc1-c1ccccc1 |  | active: 14.1 µM
CCN1CCN(CC(=O)Nc2ccc(Cl)c(S(=O)(=O)N(C)C)c2)CC1 |  | inconclusive: 11.2 µM [inhibitor, single point]
CCOC(=O)c1ccc(NC(=O)CCc2ccc(C)o2)cc1 |  | inconclusive: 12.6 µM [activator, single point]
Clc1ccc(-c2csc(-c3cccnc3)n2)s1 | inactive: 36.6% | 
CCOc1ccc(C2CC(c3cccc(C)c3)n3ncnc3N2)cc1 (centres undefined) |  | inconclusive: 12.6 µM [inhibitor, single point]
CC1(N)CCC(C(C)(C)N)CC1 (centres undefined) | inactive: 7.92% | 

Structure (SMILES) | activity change, negative = inhibition | Potency
CCc1c(C)nc(N2CCN(c3ccccc3)CC2)[nH]c1=O |  | inconclusive: 31.6 µM [activator, single point]
CCN(CC)C[C@@H]1CCCCN1CC(=O)N1c2ccccc2C(=O)Nc2cccnc21 | inactive: 2.27% | 
COC(=O)c1sccc1NC(=S)NCc1ccc(Cl)cc1 |  | active: 0.794 µM
O=C(CSc1nnc(-c2cccnc2)n1C1CCCCC1)NC1CCCCC1 | inactive: 14.6% | 
Cc1ccc(SCc2ccc(C(=O)Nc3nccs3)o2)cc1 |  | inconclusive: 35.5 µM [inhibitor, single point]
C/C(=N\Nc1nccnc1Cl)c1ccc(Br)cc1 |  | inconclusive: 15.8 µM [inhibitor, partial curve, poor fit]
CS(=O)(=O)c1ccc2nc(NC(=O)Nc3cccc(Cl)c3)sc2c1 |  | inconclusive: 6.31 µM [inhibitor, single point]
S=c1[nH]nc(COc2ccccc2)n1/N=C/c1cccs1 |  | inconclusive: 22.4 µM [inhibitor, single point]
NNC(=O)COc1ccc(-c2n[nH]c(C(F)(F)F)c2-c2ccc(Br)cc2)c(O)c1 |  | inconclusive: 17.8 µM [activator, partial curve]
C/C(Cn1nc([N+](=O)[O-])cc1C)=N\NC(=O)COc1ccc(Cl)cc1Cl |  | inconclusive: 25.1 µM [inhibitor, single point]
COc1ccccc1CNC(=O)CCc1c(C)nc2cc(-c3ccccc3OC)nn2c1C |  | inconclusive: 1.41 µM [inhibitor, full curve]
COc1ccc(CNCCC(c2ccc(F)cc2)c2ccc(OC(C)C)cc2)cc1OC (centres undefined) |  | inconclusive: 35.5 µM [inhibitor, single point]
c1ccc(-c2nccc(-c3ccco3)n2)nc1 |  | active: 12.6 µM
Cc1ccc(CCNC(=O)c2cc(-c3ccncc3)nc3ccccc23)cc1 | inactive: 14.7% | 
FC(F)(F)c1cccc(OCc2noc(-c3ccsc3)n2)c1 |  | inconclusive: 22.4 µM [activator, single point]
Cc1cc(C)c(CN2CCC(n3nccc3NC(=O)CCOc3ccccc3)CC2)cc1C | inactive: 1.57% | 
CC(C)(C)NC(=O)NCCc1ccccc1 | inactive: -35.7% | 
COc1ccc(-n2ncc3c2CC(C)(C)CC3NC(=O)CCN2CCCC2=O)cc1 (centres undefined) | inactive: 2.28% | 
Cc1ccc(S(=O)(=O)N(C)C)cc1NC(=O)C(C)N(C)Cc1sccc1C (centres undefined) |  | inconclusive: 14.1 µM [activator, single point]
O=C(/C=C/c1ccc(Cl)cc1)N1CCN(c2ccc([N+](=O)[O-])c(N3CCOCC3)c2)CC1 |  | inconclusive: 10 µM [activator, partial curve, poor fit]
Cc1cccc(CNc2nc(-c3cccc(NS(C)(=O)=O)c3)nc3ccccc23)c1 | inactive: 14.9% | 
O=C(c1ccco1)N1CCN(CC(O)COc2ccc(Br)cc2)CC1 (centres undefined) | inactive: 38% | 
COc1ccc(C(=O)Nc2ccccn2)cc1 | inactive: -10.2% | 
CC1=NN(C(=O)c2ccc(Cn3cc([N+](=O)[O-])cn3)cc2)C(O)(C(F)(F)F)C1 (centres undefined) |  | active: 10 µM
